These are yes or no findings as the source states them, for the method shown. Some binding calls cover weakened binding; strength is not graded here.

This note sets out measurements from patent publication US20240425588A1.

The target of this assay is rhesus TIGIT expressed on the cell surface of Jurkat cells (rhesus). Kind of assay: flow cytometry on Jurkat-rhesTIGIT cells. (In general: In flow cytometry, cells or beads pass a laser one at a time.)

B1: 45.32B10.A4 (antibody, V domains shown)
VH: EVQLVESGGVLVKPGGSLKLSCAASGFTFSNYVMSWVRQTPEKRLEWVATITSGGTYTYYPDSVKGRFTISRDNAKNILYLQMSSLRSEDTALYYCTRWLLSLYAMDYWGQGTSVTVSS
VL: DIQMTQTTSSLSASLGDRVTITCRASQDISNFLNWYQQKPDGTVKLLIYYTSRLHSGVPSRFSGSGSGTDYSLTISNLEQEDIATYFCQQGKTYPYTFGGGTKVEIK
Consider B1, for which the binding entry is recorded as “binds”.

B2: 45.56F7.A1 (antibody, V domains shown)
VH: EVQLVESGGALVKPGGSLKLSCAASGFTFSNYAMSWVRQTPEKRLEWVATISSGGSYTYYPDSVKGRFTISRDNAKNTLYLQMSSLRSEDTALYYCARWLLSLYAMDYWGQGTSVTVSS
VL: DFQMTQTTSSLSASLGDRVTISCRSSQDISNYLNWYQQKPDGTVKLLIYRTSRLHSGVPSRFSGSGSGTDYSLTISNLEREDIATYFCQQGKTPPYTFGGGTKLEIK
For B2, the binding result is “binds”.

B3: 45.32A8.G6 (antibody, V domains shown)
VH: QVQLKESGPGLVAPSHSLSITCTVSGFSLTNYNINWIRQPPGKGLEWLGIIWTGGGTNYNSAFMSTLSINKDNSKSQVFLKMNRMQTDDTTIYYCVRETYFNNYGFYFDYWGQSTTLTVSS
VL: EIVLTQSPTTMAASPGEKITITCSASSSISSNYLHWYQQKPGFSPKLLIYRTSNLASGVPARFSGSGSGTSYSLTIGTMEAEDVATYYCQQGSSIPRTFGGGTKLEIK
As for B3, the binding result is listed as “binds”.

B4: 45.62B12.G5 (antibody, V domains shown)
VH: DVQLQESGPGLVKPSQSLSLTCTVTGYSITSAYDWHWIRHFPGNILEWMGYIRNSGSTNYNPLLKSRISITHDTSQNHFSLKLNSVTTEDTATYYCARGLFWYFDVWGAGTTVTVSS
VL: DIQMTQSPASLSASVGETVTITCRASENIYNYLTWYQQKQGKSPQLLVYNAKTLAEGVPSRFSGSGSGTQFSLKINSLQPEDFGSYYCQHHYGNPLTFGAGTKLELK
For B4, the binding result is on record as “binds”.

B5: 45.87B8.H2.H5 (antibody, V domains shown)
VH: DVQLQESGPGLVKPSQSLSLTCTVTGYSITSAYDWHWIRLFPGHILEWMGYISYSGNTIYNPSLKSRISITHDTSKNHFFLKLNSVTTEDTATYYCARGSFWYFDVWGAGTTVTVSS
VL: DIQMTQSPASLSASVGETVTITCRVSEHIYNYLAWYQQKQGKSPQLLVYNAKTLAEGVPSRFSGSGSGTQFSLKINSLQPEDFGTYYCQHNYGNPLTFGAGTKVELK
In the case of B5, the binding entry is listed as “binds”.

B6: 45.75D4.D3.D9 (antibody, V domains shown)
VH: EVQLQQSGPELVKPGASMKMSCKASGYKFTSYVMHWVKQKPGQGLEWIGYIDPYNDGSKYNEKFKGKATLTSDKSSSIAYMELSSLTSEDSAVFYCARGGSRGWYFDVWGAGTTVTVSS
VL: DIQMTQSPASLSASVGETVTFTCRTNENIYSYLTWYQQKQGKSPQVLVYNAKTLAEGVPSRFSGSGSGTQFSLKINSLQPEDFGSYFCQHHFGNPLTFGAGTKLELK
For B6, the binding entry is recorded as “binds”.

B7: 45.86C5.C3 (antibody, V domains shown)
VH: DVQLQESGPGLVKPSQSLSLTCTVTGYSITSGYDWHWIRHFPGNILEWMGYISDSGNTIYSPSLKSRISITHDTSKNHFFLKLNSVTSEDTATYYCARGSFWYFDVWGAGTTVTVSS
VL: DIQMTQSPASLSASVGETVTITCRVSENIYSYLAWYQQKQGKSPQLLVYNTKTLAEGVPSRFSGSGSGTQFSLKINSLQPEDFGSYYCQHHYGNPLTFGAGTKLELK
In the case of B7, the binding entry is “binds”.

B8: 45.31G8.E9 (antibody, V domains shown)
VH: QIQLQQSGAELVRPGTSVKMSCKAVGYTFTNYWINWVKQRPGHGFEWIGDIYPGGYYINYNEKFKGKATLTADTSSSTAYMQLSSLTSEDSAIYYCARGYGSYAMDYWGQGTSVTVSS
VL: DIVMTQSQKFMSTSVGDRVSITCKASQNVRTDVVWYQQKPGQSPKALIFLASNRHTGVPDRFTGSGSGTDFTLTISNVQSEDLADYFCLQHWNYPYTFGGGTKLEIK
Take B8: the binding result is on record as “binds”.

B9: 45.49H11.H11 (antibody, V domains shown)
VH: EVQLQQSGPELVKPGASVKMSCKTSKYTFTNYVLHWVKQKPGQGLEWIGYINPYNDGTKYNEKFKGKATLTSDKSSSTAYMELSSLTSEDSAVYYCARSYQSNYGFGYWGQGTLVTVSA
VL: DIVMTQSHKFMSTSVGDRVSITCKASQHVSTAVVWYRQIPGQSPKILINSASYRYTGVPDRFTGSGSGTDFTFTISSVQAEDLAVYYCQQHYSIPWTFGGGTKLEIK
Take B9: the binding entry is reported as “binds”.
